Data from article PMC11977356.
These are yes or no findings as the source states them, for the method shown. In cells and extracts the contact can be indirect. Some entries that bind do so weakly or less than the wild type.

Sequences of proteins named here, by UniProt entry; tags and fusion partners are left off.
UniProt P46934: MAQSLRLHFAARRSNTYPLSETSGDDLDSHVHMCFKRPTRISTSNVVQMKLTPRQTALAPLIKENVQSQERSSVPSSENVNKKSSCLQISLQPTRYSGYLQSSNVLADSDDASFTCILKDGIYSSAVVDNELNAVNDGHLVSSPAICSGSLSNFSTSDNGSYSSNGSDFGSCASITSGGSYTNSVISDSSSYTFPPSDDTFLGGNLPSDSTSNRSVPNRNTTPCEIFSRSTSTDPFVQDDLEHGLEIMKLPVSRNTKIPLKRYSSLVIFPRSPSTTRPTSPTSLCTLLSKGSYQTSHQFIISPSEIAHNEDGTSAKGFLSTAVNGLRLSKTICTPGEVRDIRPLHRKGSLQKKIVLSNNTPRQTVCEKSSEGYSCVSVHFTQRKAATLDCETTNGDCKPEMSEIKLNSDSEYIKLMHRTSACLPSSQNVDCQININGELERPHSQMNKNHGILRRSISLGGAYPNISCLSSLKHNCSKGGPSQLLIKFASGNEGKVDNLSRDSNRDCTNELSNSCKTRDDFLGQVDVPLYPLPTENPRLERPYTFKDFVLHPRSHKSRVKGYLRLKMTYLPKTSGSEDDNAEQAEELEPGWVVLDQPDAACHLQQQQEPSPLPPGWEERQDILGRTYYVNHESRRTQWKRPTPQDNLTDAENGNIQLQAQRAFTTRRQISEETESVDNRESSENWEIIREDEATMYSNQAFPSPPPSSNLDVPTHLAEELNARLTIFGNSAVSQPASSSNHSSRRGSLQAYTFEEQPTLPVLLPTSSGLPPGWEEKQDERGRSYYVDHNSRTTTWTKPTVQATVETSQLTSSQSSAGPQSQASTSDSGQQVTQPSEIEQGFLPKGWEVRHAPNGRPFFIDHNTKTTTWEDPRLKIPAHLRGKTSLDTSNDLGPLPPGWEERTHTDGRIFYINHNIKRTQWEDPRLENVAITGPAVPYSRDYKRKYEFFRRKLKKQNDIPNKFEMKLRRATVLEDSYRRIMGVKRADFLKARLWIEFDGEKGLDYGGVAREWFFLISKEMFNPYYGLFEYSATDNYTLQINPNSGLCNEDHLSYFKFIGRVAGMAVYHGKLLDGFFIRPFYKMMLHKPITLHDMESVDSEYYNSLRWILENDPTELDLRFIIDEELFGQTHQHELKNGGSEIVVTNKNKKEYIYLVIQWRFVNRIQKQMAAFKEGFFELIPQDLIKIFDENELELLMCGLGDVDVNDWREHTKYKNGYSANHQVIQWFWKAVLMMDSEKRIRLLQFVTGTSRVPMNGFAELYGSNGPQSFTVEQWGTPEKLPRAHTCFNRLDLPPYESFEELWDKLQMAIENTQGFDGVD

Target: NEDD4 (human (endogenous in K562)) (UniProt P46934)
Test: co-IP; endogenous co-IP from K562 and K562/DOX cell lysates with anti-NEDD4 antibody, Protein A/G magnetic beads at 25 °C for 1 h, low-pH elution, western blot

binding: binds
B1: NEDD4 binding protein 1 (protein, UniProt O75113 1-896)
chain: MAARAVLDEFTAPAEKAELLEQSRGRIEGLFGVSLAVLGALGAEEPLPARIWLQLCGAQEAVHSAKEYIKGICEPELEERECYPKDMHCIFVGAESLFLKSLIQDTCADLCILDIGLLGIRGSAEAVVMARSHIQQFVKLFENKENLPSSQKESEVKREFKQFVEAHADNYTMDLLILPTSLKKELLTLTQGEENLFETGDDEVIEMRDSQQTEFTQNAATGLNISRDETVLQEEARNKAGTPVSELTKQMDTVLSSSPDVLFDPINGLTPDEEALSNERICQKRRFSDSEERHTKKQFSLENVQEGEILHDAKTLAGNVIADLSDSSADSENLSPDIKETTEEMEYNILVNFFKTMGYSQEIVEKVIKVYGPSTEPLLLLEEIEKENKRFQEDREFSAGTVYPETNKTKNKGVYSSTNELTTDSTPKKTQAHTQQNMVEKFSQLPFKVEAKPCTSNCRINTFRTVPIEQKHEVWGSNQNYICNTDPETDGLSPSVASPSPKEVNFVSRGASSHQPRVPLFPENGLHQQPEPLLPNNMKSACEKRLGCCSSPHSKPNCSTLSPPMPLPQLLPSVTDARSAGPSDHIDSSVTGVQRFRDTLKIPYKLELKNEPGRTDLKHIVIDGSNVAITHGLKKFFSCRGIAIAVEYFWKLGNRNITVFVPQWRTRRDPNVTEQHFLTQLQELGILSLTPARMVFGERIASHDDRFLLHLADKTGGIIVTNDNFREFVNESVSWREIITKRLLQYTFVGDIFMVPDDPLGRSGPRLEEFLQKEVCLRDMQPLLSALPNVGMFDPSFRVPGTQAASTSHQPPTRIQGAPSSHWLPQQPHFPLLPALPSLQQNLPMPAQRSSAETNELREALLKIFPDSEQRLKIDQILVAHPYMKDLNALSAMVLD
